Values from PubChem BioAssay AID1259405 (NCATS, 2018)
Aim: 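Mouse-designed siRNAs used to find CHO productivity engineering targets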 (primary screen). Cells: Chinese hamster CHO-K1 ovary cells with stable secreted eGFP expression. Knock-down reagent: single siRNA against mouse genes, 0.8 pmol siRNA per well (2 µl of 400 nM stock). Timing: 3 days. Detection: 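Per-well intracellular GFP measured by laser scanning cytometry, plus viability from ATP luminescence, each relative to plate median of non-targeting control wells, in %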. Scale: GFP, % of control: higher = more GFP per well, higher productivity; viability (ATP), % of control: higher = more viable cells (more ATP). Hit rule: 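a knock-down is called active if GFP reaches 120% or more of non-targeting control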.
The whole screen tested about 50,000 reagents; shown is a part drawn at random. About 4,000 of them (8%) count as active. 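Mouse siRNA library applied to hamster cells; one well for each siRNA.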 A number with no mark means an inactive call. Reagents against one gene are numbered here. Reagent sequences are not shown.

The opening 2 records, ahead of the listing:
no.	gene	reagent no.	GFP, % of control	viability (ATP), % of control
1	Slc38a2	1	94	113
2	Slc38a2	2	125 (active)	81.4

The list itself, from the start:
no.	gene	reagent no.	GFP, % of control	viability (ATP), % of control
1	Slc38a2	1	94	113
2	Slc38a2	2	125 (active)	81.4
3	Samm50	1	51.9	50.9
4	Samm50	2	68.2	88.6
5	Samm50	3	109	52.7
6	Gpr82	1	139 (active)	107
7	Gpr82	2	84.2	69.6
8	Gpr82	3	72.3	73.9
9	Arrdc3	1	61.8	60.4
10	Arrdc3	2	89	96.4
11	Arrdc3	3	85.5	108
12	Krabd3	1	47.4	36.3
13	Krabd3	2	64	73.3
14	Krabd3	3	98.3	91.7
15	Dhh	1	90.7	85.3
16	Dhh	2	64.9	51.9
17	Dhh	3	117	71.5
18	Rln1	1	88.6	65.7
19	Rln1	2	33.2	38.8
20	Rln1	3	71.9	68.5
21	Etv2	1	94.5	85.1
22	Etv2	2	50.5	69
23	Etv2	3	87.6	80.8
24	Hacd3	1	83	37.9
25	Hacd3	2	43.6	39.3
26	Hacd3	3	85.5	103
27	Utp14b	1	52.5	47.3
28	Utp14b	2	68.5	82.6
29	Utp14b	3	81.1	88.3
30	Prtn3	1	132 (active)	59.3
31	Prtn3	2	75.9	65.4
32	Prtn3	3	118	80.1
33	Mrps33	1	87.4	68.4
34	Mrps33	2	70.1	63.5
35	Mrps33	3	115	112
